Here are results for two substances from PMC4695001.

By UniProt entry, the sequences of proteins in these tests, tags left out. Where a name states a change or a piece, a line headed by the entry shows the natural chain unless it says otherwise. Chains listed by the source or under a name are the forms on record and can include a tag or linker.
androgen receptor splice variant AR-V7 (P10275-3, form named): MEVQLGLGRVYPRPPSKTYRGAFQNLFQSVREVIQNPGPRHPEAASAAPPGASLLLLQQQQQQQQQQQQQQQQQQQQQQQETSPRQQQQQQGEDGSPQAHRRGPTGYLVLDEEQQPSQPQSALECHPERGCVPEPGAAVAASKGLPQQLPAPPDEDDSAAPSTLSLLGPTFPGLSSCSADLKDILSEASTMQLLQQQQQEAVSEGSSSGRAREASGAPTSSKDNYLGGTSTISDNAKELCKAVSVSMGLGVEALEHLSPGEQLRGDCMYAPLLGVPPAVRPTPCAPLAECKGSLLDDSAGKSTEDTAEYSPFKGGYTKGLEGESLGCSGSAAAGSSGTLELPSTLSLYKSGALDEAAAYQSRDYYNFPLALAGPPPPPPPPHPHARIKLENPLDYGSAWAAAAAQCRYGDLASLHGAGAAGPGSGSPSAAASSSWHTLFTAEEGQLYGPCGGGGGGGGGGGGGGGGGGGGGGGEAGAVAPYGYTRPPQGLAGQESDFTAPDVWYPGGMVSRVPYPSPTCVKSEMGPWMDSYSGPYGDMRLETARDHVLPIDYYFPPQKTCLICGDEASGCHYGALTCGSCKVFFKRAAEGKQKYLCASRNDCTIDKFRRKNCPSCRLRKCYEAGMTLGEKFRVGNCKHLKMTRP
UniProt Q9UNE7: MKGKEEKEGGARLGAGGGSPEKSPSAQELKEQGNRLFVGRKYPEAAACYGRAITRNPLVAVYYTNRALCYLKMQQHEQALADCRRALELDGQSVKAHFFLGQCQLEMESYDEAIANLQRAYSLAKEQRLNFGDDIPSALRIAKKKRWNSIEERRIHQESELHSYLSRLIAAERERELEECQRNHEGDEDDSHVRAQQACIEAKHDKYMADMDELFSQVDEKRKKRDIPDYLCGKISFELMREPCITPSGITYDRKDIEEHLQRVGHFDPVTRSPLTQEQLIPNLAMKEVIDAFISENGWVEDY

In assay [1] the target is androgen receptor splice variant AR-V7 (human (endogenous in CWR22Rv1)) (UniProt P10275). Put plainly: co-IP; endogenous proteins; 1 mg total RIPA lysate of LNCaP or CWR22Rv1 cells treated with DMSO or gal (10 uM, 11 or 14 h); pre-cleared with protein A/G sepharose; 1 ug polyclonal antibody per 500 ug protein (AR-V7: mouse monoclonal), 4°C 12 h; washed 3X with lysis buffer; immunoblot. A general note: Immunoblotting shows a protein as a band on a membrane.

Assay [2] deals with CHIP (C-terminus of Hsp70-interacting protein) (human (endogenous in CWR22Rv1)) (UniProt Q9UNE7). The description is as above.

These are yes or no findings as the source states them, for the method shown. In cells and extracts the contact can be indirect. Some entries that bind do so weakly or less than the wild type.

In the case of “CHIP (C-terminus of Hsp70-interacting protein) (from UniProt Q9UNE7 1-303) (enzyme)”, the binding entry in assay [1] is reported as “binds”. As to “androgen receptor splice variant AR-V7 (from UniProt P10275-3 1-644)”, the binding result in assay [2] is “binds”.
